The results in this text go back to PMC13013135 (European Journal of Nuclear Medicine and Molecular Imaging, 2025).

A value given as a limit tells only on which side of the number the result lay.

Data set [1] can be described thus: general procedure: Fmoc solid-phase peptide synthesis; Fmoc-Glu(OtBu)-preloaded Wang resin; 2-CTC resin for the Aad analog; COMU (dye conjugation in solution). The settings on record: for conjugation yield: based on starting peptide.
The nature of data set [2]: general procedure: Fmoc solid-phase peptide synthesis; 2-CTC; COMU (dye conjugation in solution). The settings on record: whole synthesis, scale of the general procedure 0.33 mmol.
Data set [3] in a line: general procedure: Fmoc solid-phase peptide synthesis; Fmoc-Glu(OtBu)-Wang; COMU (dye conjugation in solution). The settings on record: whole synthesis, based on resin-bound Fmoc-Glu(OtBu)-OH, scale of the general procedure 0.33 mmol.

Regarding Ac-mas3-k(Sulfo-Cy7-II)-y-nal-k-Sub-KuE, in data set [1] (conjugation step), the “final HPLC purity” value is over 90% and the conjugation yield is 9%.
Ac-mas3-k-y-nal-k-Sub-Ku-Aad: in data set [2], the crude yield is given as 8%.
For the substance Ac-mas3-k(Sulfo-Cy5)-y-nal-k-Sub-KuE, in data set [1] (conjugation step), the “final HPLC purity” value is recorded as over 97% and the conjugation yield is recorded as 12%.
Consider Ac-mas3-k(Sulfo-Cy7-I)-y-nal-k-Sub-KuE, for which, in data set [1] (conjugation step), the “final HPLC purity” value is on record as over 96% and the conjugation yield is listed as 21%.
For Ac-mas3-k(Sulfo-Cy5)-y-nal-k-Sub-Ku-Aad the same measures were over 94% and 12%.
Ac-mas3-k-y-nal-k-Sub-KuE: in data set [3], the crude yield turned out to be 30%. The “final HPLC purity” value in data set [1] (whole synthesis, scale of the general procedure 0.33 mmol) is on record as over 95%.
